Measurements from the supplement of paper PMC10849652.
The list shows a part of the results.

By UniProt entry, the sequences of proteins in these tests, tags left out. Where a name states a change or a piece, a line headed by the entry shows the natural chain unless it says otherwise.
UniProt Q06136: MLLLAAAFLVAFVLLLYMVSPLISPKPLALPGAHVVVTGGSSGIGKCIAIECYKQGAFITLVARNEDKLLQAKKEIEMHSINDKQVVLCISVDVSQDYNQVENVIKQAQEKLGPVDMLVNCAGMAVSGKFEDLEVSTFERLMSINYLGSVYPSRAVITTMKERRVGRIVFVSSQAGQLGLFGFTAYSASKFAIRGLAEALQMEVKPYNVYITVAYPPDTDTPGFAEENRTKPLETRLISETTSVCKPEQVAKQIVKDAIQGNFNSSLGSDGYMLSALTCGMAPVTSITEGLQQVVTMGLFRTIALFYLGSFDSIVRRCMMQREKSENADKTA
UniProt Q9Y448: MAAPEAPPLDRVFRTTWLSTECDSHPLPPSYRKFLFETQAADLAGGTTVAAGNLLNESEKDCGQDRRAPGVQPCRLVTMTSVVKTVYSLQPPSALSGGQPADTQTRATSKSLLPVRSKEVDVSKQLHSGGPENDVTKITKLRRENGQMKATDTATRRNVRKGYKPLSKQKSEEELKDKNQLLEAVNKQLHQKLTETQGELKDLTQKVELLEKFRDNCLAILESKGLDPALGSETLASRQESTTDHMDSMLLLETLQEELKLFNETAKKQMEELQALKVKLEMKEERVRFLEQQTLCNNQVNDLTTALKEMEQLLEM
UniProt Q8NC54: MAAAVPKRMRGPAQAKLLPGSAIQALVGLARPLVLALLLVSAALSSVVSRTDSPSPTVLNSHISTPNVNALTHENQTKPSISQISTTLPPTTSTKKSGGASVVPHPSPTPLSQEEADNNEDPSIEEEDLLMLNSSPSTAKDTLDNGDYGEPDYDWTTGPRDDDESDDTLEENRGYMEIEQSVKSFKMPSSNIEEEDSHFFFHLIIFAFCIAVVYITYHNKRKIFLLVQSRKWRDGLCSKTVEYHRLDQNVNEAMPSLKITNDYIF
UniProt O00629, whole entry, looked up: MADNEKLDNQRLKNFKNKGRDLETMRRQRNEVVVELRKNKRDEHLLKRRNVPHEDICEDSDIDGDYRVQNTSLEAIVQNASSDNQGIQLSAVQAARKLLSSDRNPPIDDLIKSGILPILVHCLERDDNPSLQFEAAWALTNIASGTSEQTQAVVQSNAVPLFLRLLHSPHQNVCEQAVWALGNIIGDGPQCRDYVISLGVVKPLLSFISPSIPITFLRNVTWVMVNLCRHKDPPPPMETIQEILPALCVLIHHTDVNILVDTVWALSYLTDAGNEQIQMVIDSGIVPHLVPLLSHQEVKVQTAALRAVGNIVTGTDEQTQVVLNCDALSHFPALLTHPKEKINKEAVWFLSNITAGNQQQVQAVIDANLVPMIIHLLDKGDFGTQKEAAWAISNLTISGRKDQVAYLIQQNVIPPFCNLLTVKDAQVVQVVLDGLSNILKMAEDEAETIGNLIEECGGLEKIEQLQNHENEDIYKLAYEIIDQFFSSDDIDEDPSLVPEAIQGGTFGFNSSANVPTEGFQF
UniProt Q9UK76: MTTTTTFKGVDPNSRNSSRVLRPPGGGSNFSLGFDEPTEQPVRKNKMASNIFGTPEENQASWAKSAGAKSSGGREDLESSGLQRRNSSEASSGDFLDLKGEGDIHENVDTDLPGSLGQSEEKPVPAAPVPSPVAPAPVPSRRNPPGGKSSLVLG
UniProt Q9Y496, whole entry, looked up: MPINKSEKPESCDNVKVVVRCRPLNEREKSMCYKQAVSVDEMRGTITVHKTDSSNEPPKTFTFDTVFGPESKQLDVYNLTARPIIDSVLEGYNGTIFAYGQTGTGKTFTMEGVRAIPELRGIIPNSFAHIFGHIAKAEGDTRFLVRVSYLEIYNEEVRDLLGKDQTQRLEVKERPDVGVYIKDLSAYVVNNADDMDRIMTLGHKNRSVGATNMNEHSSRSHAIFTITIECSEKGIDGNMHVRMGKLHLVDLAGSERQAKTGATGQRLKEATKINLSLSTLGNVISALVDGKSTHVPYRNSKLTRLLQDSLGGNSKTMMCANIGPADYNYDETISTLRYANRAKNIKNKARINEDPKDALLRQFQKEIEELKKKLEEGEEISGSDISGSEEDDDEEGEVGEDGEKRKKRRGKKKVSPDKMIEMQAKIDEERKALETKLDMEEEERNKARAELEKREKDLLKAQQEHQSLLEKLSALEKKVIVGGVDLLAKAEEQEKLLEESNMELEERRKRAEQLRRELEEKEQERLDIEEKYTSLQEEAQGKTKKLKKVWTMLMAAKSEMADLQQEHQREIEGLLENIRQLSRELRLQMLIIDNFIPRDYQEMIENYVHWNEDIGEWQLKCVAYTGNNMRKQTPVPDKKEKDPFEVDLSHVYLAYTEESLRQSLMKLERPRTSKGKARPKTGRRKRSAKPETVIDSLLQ
UniProt Q9H0B6: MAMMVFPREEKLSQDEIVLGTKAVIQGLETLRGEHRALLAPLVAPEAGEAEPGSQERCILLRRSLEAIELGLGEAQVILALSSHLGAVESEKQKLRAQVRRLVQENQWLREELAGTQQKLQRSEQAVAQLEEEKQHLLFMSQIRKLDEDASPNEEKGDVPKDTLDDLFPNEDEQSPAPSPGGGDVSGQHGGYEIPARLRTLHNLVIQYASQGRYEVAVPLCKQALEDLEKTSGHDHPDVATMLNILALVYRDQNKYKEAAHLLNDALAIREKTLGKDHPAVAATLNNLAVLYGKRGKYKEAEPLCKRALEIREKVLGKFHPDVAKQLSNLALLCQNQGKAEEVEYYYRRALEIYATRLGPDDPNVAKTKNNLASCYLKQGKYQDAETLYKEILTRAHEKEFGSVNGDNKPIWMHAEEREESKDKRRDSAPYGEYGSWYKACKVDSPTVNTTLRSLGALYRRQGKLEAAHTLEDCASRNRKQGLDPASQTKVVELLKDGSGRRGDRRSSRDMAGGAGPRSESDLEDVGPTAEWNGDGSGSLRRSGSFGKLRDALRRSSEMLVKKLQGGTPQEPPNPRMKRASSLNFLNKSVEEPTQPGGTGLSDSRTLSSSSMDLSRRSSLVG
UniProt Q9P0J7: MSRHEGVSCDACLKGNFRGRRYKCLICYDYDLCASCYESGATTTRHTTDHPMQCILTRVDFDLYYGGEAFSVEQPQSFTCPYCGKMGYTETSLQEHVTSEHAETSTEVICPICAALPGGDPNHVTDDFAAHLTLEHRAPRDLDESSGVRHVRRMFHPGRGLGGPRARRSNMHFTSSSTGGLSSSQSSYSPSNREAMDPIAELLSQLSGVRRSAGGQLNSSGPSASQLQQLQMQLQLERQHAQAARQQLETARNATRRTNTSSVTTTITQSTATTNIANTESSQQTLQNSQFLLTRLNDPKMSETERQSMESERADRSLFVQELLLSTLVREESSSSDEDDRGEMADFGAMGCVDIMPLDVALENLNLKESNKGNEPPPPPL
UniProt Q99661: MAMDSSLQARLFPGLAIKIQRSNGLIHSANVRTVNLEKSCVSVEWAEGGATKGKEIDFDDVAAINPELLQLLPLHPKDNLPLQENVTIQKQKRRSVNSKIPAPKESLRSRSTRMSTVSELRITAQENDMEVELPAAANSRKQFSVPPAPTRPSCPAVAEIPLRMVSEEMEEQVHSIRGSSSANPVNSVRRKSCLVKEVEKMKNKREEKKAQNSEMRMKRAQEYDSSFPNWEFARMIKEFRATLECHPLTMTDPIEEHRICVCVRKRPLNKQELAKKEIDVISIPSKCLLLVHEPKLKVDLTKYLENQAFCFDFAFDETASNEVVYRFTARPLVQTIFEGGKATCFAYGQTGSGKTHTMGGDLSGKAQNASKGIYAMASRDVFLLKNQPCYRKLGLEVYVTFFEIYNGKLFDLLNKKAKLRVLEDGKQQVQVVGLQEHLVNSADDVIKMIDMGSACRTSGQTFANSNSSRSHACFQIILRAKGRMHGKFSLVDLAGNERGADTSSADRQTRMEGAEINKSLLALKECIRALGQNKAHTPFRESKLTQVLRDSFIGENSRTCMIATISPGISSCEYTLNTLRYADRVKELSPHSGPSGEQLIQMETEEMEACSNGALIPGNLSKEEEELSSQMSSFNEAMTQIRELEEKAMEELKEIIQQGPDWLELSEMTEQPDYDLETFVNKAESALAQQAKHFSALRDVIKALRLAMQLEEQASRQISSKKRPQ
UniProt Q9H3F6: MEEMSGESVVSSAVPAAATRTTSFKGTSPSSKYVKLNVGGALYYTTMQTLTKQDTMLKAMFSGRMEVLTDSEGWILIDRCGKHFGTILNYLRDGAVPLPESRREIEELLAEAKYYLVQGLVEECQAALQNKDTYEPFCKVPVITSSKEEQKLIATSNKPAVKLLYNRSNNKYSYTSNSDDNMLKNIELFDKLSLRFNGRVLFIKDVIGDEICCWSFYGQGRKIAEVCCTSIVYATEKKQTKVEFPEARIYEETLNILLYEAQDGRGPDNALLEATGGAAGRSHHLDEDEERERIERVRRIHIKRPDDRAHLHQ
UniProt O60333: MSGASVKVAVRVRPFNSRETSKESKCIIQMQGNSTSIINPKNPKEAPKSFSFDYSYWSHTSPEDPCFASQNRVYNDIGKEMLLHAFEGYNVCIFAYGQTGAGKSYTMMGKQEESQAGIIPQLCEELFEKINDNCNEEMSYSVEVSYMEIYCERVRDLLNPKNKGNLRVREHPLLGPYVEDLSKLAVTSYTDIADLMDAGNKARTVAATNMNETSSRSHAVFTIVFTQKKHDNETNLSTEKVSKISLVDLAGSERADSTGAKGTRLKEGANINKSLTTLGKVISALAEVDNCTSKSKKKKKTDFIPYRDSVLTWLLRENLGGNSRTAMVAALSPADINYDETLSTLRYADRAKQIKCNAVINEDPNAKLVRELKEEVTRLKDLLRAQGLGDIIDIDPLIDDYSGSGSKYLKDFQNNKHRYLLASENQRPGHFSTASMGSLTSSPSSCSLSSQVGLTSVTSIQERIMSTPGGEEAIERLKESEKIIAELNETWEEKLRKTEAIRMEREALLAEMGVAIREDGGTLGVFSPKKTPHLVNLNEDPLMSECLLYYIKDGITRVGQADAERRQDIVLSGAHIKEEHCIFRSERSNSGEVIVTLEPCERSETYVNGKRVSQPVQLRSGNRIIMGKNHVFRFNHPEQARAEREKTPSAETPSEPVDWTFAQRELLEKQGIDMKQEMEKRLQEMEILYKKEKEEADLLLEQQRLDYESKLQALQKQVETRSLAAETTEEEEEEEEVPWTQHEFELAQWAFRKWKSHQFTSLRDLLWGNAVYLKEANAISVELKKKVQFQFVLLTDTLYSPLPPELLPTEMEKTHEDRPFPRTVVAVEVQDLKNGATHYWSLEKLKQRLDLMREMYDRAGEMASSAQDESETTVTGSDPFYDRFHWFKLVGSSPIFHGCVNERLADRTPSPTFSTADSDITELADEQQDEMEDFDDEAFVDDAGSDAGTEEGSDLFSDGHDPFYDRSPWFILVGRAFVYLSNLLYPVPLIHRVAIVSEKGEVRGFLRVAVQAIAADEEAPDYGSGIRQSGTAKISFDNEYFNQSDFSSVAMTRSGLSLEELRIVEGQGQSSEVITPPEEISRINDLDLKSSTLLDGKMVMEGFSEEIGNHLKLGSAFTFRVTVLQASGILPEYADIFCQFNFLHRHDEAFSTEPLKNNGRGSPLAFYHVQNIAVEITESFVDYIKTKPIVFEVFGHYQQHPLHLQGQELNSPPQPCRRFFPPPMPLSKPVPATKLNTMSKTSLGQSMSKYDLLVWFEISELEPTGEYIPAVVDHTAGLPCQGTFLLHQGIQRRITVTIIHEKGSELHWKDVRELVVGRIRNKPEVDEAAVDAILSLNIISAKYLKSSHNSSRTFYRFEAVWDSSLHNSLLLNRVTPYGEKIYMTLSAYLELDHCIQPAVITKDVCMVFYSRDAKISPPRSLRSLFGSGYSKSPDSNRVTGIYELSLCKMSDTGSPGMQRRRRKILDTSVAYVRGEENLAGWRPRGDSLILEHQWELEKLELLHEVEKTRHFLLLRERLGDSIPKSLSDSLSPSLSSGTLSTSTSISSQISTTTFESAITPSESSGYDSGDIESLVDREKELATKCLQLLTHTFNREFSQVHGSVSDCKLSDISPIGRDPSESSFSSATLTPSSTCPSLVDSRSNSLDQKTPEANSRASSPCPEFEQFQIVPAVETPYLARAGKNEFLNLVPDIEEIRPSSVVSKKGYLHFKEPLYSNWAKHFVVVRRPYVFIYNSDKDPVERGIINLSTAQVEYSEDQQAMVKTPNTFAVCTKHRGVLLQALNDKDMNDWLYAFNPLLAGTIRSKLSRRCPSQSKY
UniProt P50053: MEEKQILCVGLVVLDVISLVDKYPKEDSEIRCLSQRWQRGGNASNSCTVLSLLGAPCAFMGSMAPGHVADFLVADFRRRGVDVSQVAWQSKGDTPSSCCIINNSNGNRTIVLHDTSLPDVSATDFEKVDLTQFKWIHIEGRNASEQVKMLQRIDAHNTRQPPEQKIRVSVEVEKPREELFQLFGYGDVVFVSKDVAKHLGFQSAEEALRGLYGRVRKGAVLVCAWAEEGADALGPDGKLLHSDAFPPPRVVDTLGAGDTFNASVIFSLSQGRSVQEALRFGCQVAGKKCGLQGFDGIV

Legend:
Assay in all cases: log2 fold change, soluble protein after heating vs DMSO (PISA); higher = thermal stabilisation; K562 cells, 10 uM, 30 min; active = over 0.2 and 3.5 SD of the protein, either way, in both replicates (recomputed)
[1] = compound: COC1=CC=C(C=C1)CN2C=CC3=C2C=C(C=C3)C(=O)NO
How it was run: (§1)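 Values are thermal stability changes relative to control samples and are taken from duplicates. They are stated as log2 fold changes. Before quantification by TMTpro 16plex LC-MS/MS with equalised channel sums, K562 cells at 2×10^6 cells/mL were treated with 10 μM compound for 30 min, heated in aliquots for 3 min across 48°C-58°C, pooled, extracted in PBS with 0.5% NP-40 at 4°C, and centrifuged at 21,000xg for 90 min to give the soluble supernatant.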

filanesib = compound: CON(C)C(=O)N1N=C(c2cc(F)ccc2F)S[C@@]1(CCCN)c1ccccc1 [filanesib]
How it was run: as §1

zotarolimus = compound: CO[C@H]1C[C@@H]2CC[C@@H](C)[C@@](O)(O2)C(=O)C(=O)N2CCCC[C@H]2C(=O)O[C@H]([C@H](C)C[C@@H]2CC[C@H](n3cnnn3)[C@H](OC)C2)CC(=O)[C@H](C)/C=C(\C)[C@@H](O)[C@@H](OC)C(=O)[C@H](C)C[C@H](C)/C=C/C=C/C=C/1C [zotarolimus]
How it was run: as §1

idasanutlin = compound: COc1cc(C(=O)O)ccc1NC(=O)[C@@H]1N[C@@H](CC(C)(C)C)[C@](C#N)(c2ccc(Cl)cc2F)[C@H]1c1cccc(Cl)c1F [idasanutlin]
How it was run: as §1

alisertib = compound: COc1cc(Nc2ncc3c(n2)-c2ccc(Cl)cc2C(c2c(F)cccc2OC)=NC3)ccc1C(=O)O [alisertib]
How it was run: as §1

[2] = compound: COc1cc2nc(-c3cc(F)ccc3O)nc(N[C@@H]3CNC[C@H]3C(C)(C)O)c2cc1OC
How it was run: as §1

gefitinib = compound: COc1cc2ncnc(Nc3ccc(F)c(Cl)c3)c2cc1OCCCN1CCOCC1 [gefitinib]
How it was run: as §1

[3] = compound: COc1cccc2cc(-c3nc([C@H]4CC[C@H](C(=O)O)CC4)n4ncnc(N)c34)[nH]c12
How it was run: as §1

lapatinib = compound: CS(=O)(=O)CCNCc1ccc(-c2ccc3ncnc(Nc4ccc(OCc5cccc(F)c5)c(Cl)c4)c3c2)o1 [lapatinib]
How it was run: as §1

pictilisib = compound: CS(=O)(=O)N1CCN(Cc2cc3nc(-c4cccc5[nH]ncc45)nc(N4CCOCC4)c3s2)CC1 [pictilisib]
How it was run: as §1

[4] = compound: CS(=O)(=O)c1ccc(-c2cnc(N)c(C(=O)Nc3ccccc3)n2)cc1
How it was run: as §1

crizotinib = compound: C[C@@H](Oc1cc(-c2cnn(C3CCNCC3)c2)cnc1N)c1c(Cl)ccc(F)c1Cl [crizotinib]
How it was run: as §1

[5] = compound: C[C@@H]1COCCN1C2=NC(=NC(=C2)C3(CC3)S(=O)(=O)C)C4=C5C=CNC5=CC=C4
How it was run: as §1

[6] = compound: C[C@H](C1=CC=C(C=C1)C(=O)NC2=C3C=CNC3=NC=C2)N
How it was run: as §1

duvelisib = compound: C[C@H](Nc1ncnc2nc[nH]c12)c1cc2cccc(Cl)c2c(=O)n1-c1ccccc1 [duvelisib]
How it was run: as §1

gandotinib = compound: Cc1cc(Nc2cc(CN3CCOCC3)c3nc(C)c(Cc4ccc(Cl)cc4F)n3n2)n[nH]1 [gandotinib]
How it was run: as §1

tozasertib = compound: Cc1cc(Nc2cc(N3CCN(C)CC3)nc(Sc3ccc(NC(=O)C4CC4)cc3)n2)n[nH]1 [tozasertib]
How it was run: as §1

[7] = compound: Cc1cc(SCc2sc(-c3ccc(C(F)(F)F)cc3)nc2C)ccc1OCC(=O)O
How it was run: as §1

doramapimod = compound: Cc1ccc(-n2nc(C(C)(C)C)cc2NC(=O)Nc2ccc(OCCN3CCOCC3)c3ccccc23)cc1 [doramapimod]
How it was run: as §1

ispinesib = compound: Cc1ccc(C(=O)N(CCCN)[C@@H](c2nc3cc(Cl)ccc3c(=O)n2Cc2ccccc2)C(C)C)cc1 [ispinesib]
How it was run: as §1

Measured: log2 fold change

KDSR (UniProt Q06136)
inactive: [1] 0.014 | filanesib -0.044 | zotarolimus -0.05 | idasanutlin -0.041 | alisertib -0.038 | [2] 0.007 | gefitinib -0.011 | [3] 0.029 | lapatinib 0.023 | pictilisib -0.045 | [4] -0.051 | crizotinib 0.008 | [5] 0.015 | [6] -0.118 | duvelisib 0.021 | gandotinib -0.073 | tozasertib 0.003 | [7] -0.006 | doramapimod -0.052 | ispinesib 0.016

KNSTRN (UniProt Q9Y448)
inactive: [1] -0.01 | filanesib 0.103 | zotarolimus -0.009 | idasanutlin 0.151 | alisertib -0.092 | [2] 0.033 | gefitinib 0.006 | [3] -0.101 | lapatinib 0.005 | pictilisib 0.033 | [4] -0.056 | crizotinib 0.004 | [5] -0.158 | [6] 0.07 | duvelisib -0.024 | gandotinib 0.016 | tozasertib 0.035 | [7] 0.017 | doramapimod 0.033 | ispinesib -0.09

KCT2 (UniProt Q8NC54)
inactive: [1] -0.015 | filanesib -0.036 | zotarolimus -0.044 | idasanutlin -0.029 | alisertib -0.074 | [2] 0.021 | gefitinib 0.032 | [3] 0.039 | lapatinib -0.002 | pictilisib 0.023 | [4] 0 | crizotinib -0.186 | [5] 0.074 | [6] -0.04 | gandotinib 0.038 | [7] 0.054 | doramapimod 0.091 | ispinesib -0.118

KDM1A isoform 2 (UniProt O60341)
inactive: [1] 0.019 | filanesib 0.004 | zotarolimus -0.009 | idasanutlin -0.03 | alisertib -0.055 | [2] 0.07 | gefitinib 0.022 | [3] -0.036 | lapatinib 0.068 | pictilisib -0.008 | [4] -0.047 | crizotinib -0.036 | [5] 0.018 | [6] -0.011 | gandotinib 0.014 | [7] 0.061 | doramapimod -0.028 | ispinesib -0.057

JMJD6 isoform 3 (UniProt Q6NYC1)
inactive: [1] -0.061 | filanesib -0.039 | zotarolimus 0.03 | idasanutlin 0.019 | alisertib 0.013 | [2] -0.088 | gefitinib 0.059 | [3] -0.021 | lapatinib -0.016 | pictilisib 0.039 | [4] -0.037 | crizotinib 0.046 | [5] 0.046 | [6] -0.034 | gandotinib -0.147 | [7] 0.029 | doramapimod 0.005 | ispinesib 0.039

KDM3B (UniProt Q7LBC6)
inactive: [1] 0.01 | filanesib 0.001 | zotarolimus 0.033 | idasanutlin -0.026 | alisertib 0.021 | [2] 0.065 | gefitinib 0.008 | [3] -0.029 | lapatinib -0.014 | pictilisib 0.012 | [4] 0.045 | crizotinib 0.001 | [5] 0.086 | [6] -0.044 | gandotinib -0.045 | [7] 0.012 | doramapimod -0.077 | ispinesib 0.015

KPNA4 (UniProt O00629)
inactive: [1] 0.017 | filanesib -0.028 | zotarolimus 0.015 | idasanutlin -0.068 | alisertib -0.026 | [2] -0.091 | gefitinib 0.041 | [3] 0.044 | lapatinib -0.017 | pictilisib -0.025 | [4] 0.004 | crizotinib -0.003 | [5] 0.024 | [6] -0.073 | gandotinib -0.032 | [7] 0.014 | doramapimod -0.046 | ispinesib 0.037

KCTD2 (UniProt Q14681)
inactive: [1] 0.068 | filanesib 0.154 | zotarolimus -0.148 | idasanutlin 0.116 | alisertib -0.012 | [2] 0.402 | gefitinib 0.025 | [3] 0.154 | lapatinib -0.413 | pictilisib 0.426 | [4] 0.178 | crizotinib 0.02 | [5] -0.047 | [6] 0.511 | gandotinib 0.355 | [7] -0.281 | doramapimod 0.089 | ispinesib 0.026

JPT1 (UniProt Q9UK76)
inactive: [1] 0.077 | filanesib -0.018 | zotarolimus 0.005 | idasanutlin 0.023 | alisertib -0.048 | [2] -0.086 | gefitinib 0.022 | [3] 0.048 | lapatinib 0.042 | pictilisib 0.012 | [4] -0.001 | crizotinib 0.041 | [5] -0.02 | [6] -0.082 | duvelisib 0.009 | gandotinib -0.002 | tozasertib -0.004 | [7] -0.06 | doramapimod 0.03 | ispinesib -0.021

KIF3A (UniProt Q9Y496)
inactive: [1] 0.219 | filanesib -0.091 | zotarolimus -0.004 | idasanutlin 0.056 | alisertib -0.027 | [2] 0.137 | gefitinib -0.129 | [3] 0 | lapatinib -0.063 | pictilisib 0.146 | [4] 0.049 | crizotinib -0.239 | [5] -0.01 | [6] 0.143 | gandotinib -0.024 | [7] -0.029 | doramapimod 0.003 | ispinesib 0.044

KLC2 (UniProt Q9H0B6)
inactive: [1] 0.06 | filanesib -0.038 | zotarolimus -0.028 | idasanutlin -0.065 | alisertib -0.047 | [2] -0.133 | gefitinib 0.017 | [3] 0 | lapatinib -0.005 | pictilisib 0.083 | [4] 0.012 | crizotinib -0.131 | [5] 0.008 | [6] -0.007 | gandotinib -0.079 | [7] 0.047 | doramapimod -0.002 | ispinesib -0.062

KCMF1 (UniProt Q9P0J7)
inactive: [1] -0.006 | filanesib 0.043 | zotarolimus 0.04 | idasanutlin -0.051 | alisertib -0.087 | [2] 0.057 | gefitinib -0.077 | [3] -0.004 | lapatinib 0.189 | pictilisib -0.241 | [4] 0.086 | crizotinib -0.078 | [5] -0.311 | [6] 0.078 | gandotinib -0.145 | tozasertib -0.029 | doramapimod 0.003 | ispinesib 0.021

KIF2C (UniProt Q99661)
inactive: [1] 0.063 | filanesib -0.033 | zotarolimus 0.001 | idasanutlin -0.046 | alisertib -0.008 | [2] 0.09 | gefitinib 0.006 | [3] -0.081 | lapatinib -0.048 | pictilisib 0.008 | [4] -0.016 | crizotinib -0.171 | [5] -0.028 | [6] 0.012 | gandotinib -0.065 | [7] 0.082 | doramapimod 0.007 | ispinesib -0.028

KIDINS220 (UniProt Q9ULH0)
inactive: [1] 0.001 | filanesib 0.067 | zotarolimus 0.002 | idasanutlin -0.02 | alisertib -0.054 | [2] 0.074 | gefitinib 0.017 | [3] -0.003 | lapatinib 0.028 | pictilisib 0.024 | [4] 0.064 | crizotinib 0.086 | [5] -0.011 | [6] -0.031 | duvelisib 0.057 | gandotinib 0.02 | tozasertib -0.007 | [7] -0.011 | doramapimod 0.004 | ispinesib 0.015

KCTD10 (UniProt Q9H3F6)
inactive: [1] 0.086 | filanesib 0.177 | zotarolimus -0.095 | idasanutlin -0.049 | alisertib -0.06 | [2] 0.079 | gefitinib -0.03 | [3] -0.105 | lapatinib 0.001 | pictilisib -0.039 | [4] -0.035 | crizotinib 0.097 | [5] -0.027 | [6] -0.13 | gandotinib 0.042 | [7] -0.01 | doramapimod -0.042 | ispinesib 0.108

KIF1B isoform 4 (UniProt O60333)
inactive: [1] 0.008 | filanesib -0.128 | zotarolimus 0.024 | idasanutlin -0.006 | alisertib -0.044 | [2] -0.014 | gefitinib -0.004 | [3] -0.04 | lapatinib 0.013 | pictilisib 0.037 | [4] 0.002 | crizotinib -0.067 | [5] 0.048 | [6] 0.035 | gandotinib -0.043 | [7] 0.052 | doramapimod 0.029 | ispinesib -0.149

KHK isoform 2 (UniProt P50053)
inactive: [1] 0.024 | filanesib 0.04 | zotarolimus -0.072 | idasanutlin -0.038 | alisertib -0.03 | [2] -0.054 | gefitinib -0.039 | [3] 0.044 | lapatinib -0.001 | pictilisib -0.027 | [4] 0.048 | crizotinib 0.031 | [5] 0.011 | [6] -0.01 | duvelisib 0.054 | gandotinib 0.005 | tozasertib -0.055 | [7] 0.021 | doramapimod -0.016 | ispinesib -0.042
